Experimental data reported in the supplement of paper PMC3334620.
Over roughly 33,000 sequences, “E-score (-0.5 to 0.5)” has its median near -8e-05; the highest 2% begin near 0.23. This is one part of the list.

molecular target: T1, Nrg2 (UniProt P38082); assay: PBM E-score (8-mer binding enrichment) (E-score (-0.5 to 0.5)); higher = stronger / more preferred TF binding; settings: protein concentration: 100 nM; construct: GST-full length
T1 sequence: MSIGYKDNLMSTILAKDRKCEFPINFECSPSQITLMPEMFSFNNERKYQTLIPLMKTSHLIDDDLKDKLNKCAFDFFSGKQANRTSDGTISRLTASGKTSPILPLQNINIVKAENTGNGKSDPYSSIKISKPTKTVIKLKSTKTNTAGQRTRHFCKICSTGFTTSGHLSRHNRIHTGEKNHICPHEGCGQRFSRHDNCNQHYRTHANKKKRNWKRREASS
Summary of the method: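 For each ungapped eight-base word taken together with its reverse complement, the Universal PBM Analysis Suite assigned an E-score. Binding data came from GST-tagged yeast transcription factors, applied at about 100-200 nM, on universal all-10-mer Agilent arrays made double-stranded by primer extension. Fluorescent anti-GST marked bound protein, and scans were normalised with masliner.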

Sequence | PBM E-score
GGACGCGA | 0.0612
CCGCTAGC | -0.16
TAGCAACA | 0.135
ACCTTACC | 0.143
ACGAAGGA | -0.0183
ACTGTAGG | 0.116
TCATTAAA | 0.35
CTTACGTC | -0.182
AAAGGTCG | -0.137
GTTATGGA | 0.223
CTTAGTAA | 0.0233
TCTTAAAA | -0.118
TCCATGCA | 0.0936
AGCACGCT | -0.147
ACTCTACA | -0.053
CACTCCGA | -0.0556
CCGCAGGA | -0.151
CGAGCCTC | -0.209
CGCCGATA | 0.0331
ACGCCTCT | -0.123
ACGAAGGC | -0.203
ATCGCGCG | 0.241
ACCGAAGC | -0.0884
AGGCGACC | -0.165

Sequence | PBM E-score
GATCATCA | -0.123
TCACCTGA | -0.0956
ATCGATCA | 0.103
ACAGAAGT | -0.0546
CCGTAAAC | 0.00547
CCATGGAC | 0.00514
GCCAGCCC | -0.209
ATGTGGGA | -0.0781
GAACATTC | 0.0939
GCTGTACA | -0.0814
AATTTGCG | 0.157
CGAGGGTC | 0.0765
GAGGCGAA | 0.106
CTTGACAA | 0.00685
GGCCTGAC | -0.0513
ACATTAGG | -0.103
AAGCTCGT | -0.0751
ATTCTTTC | 0.0726
GAGCGAGA | 0.206
GACAAGCA | -0.0713
CACTGGAA | -0.0187
ACTGGAAA | 0.00431
ACATGGTA | -0.0687
AATTATCC | -0.0109

No new results follow: an excerpt of the list.
Sequence | PBM E-score
AATTTGCG | 0.157
CGAGGGTC | 0.0765
GAGGCGAA | 0.106
CTTGACAA | 0.00685
GGCCTGAC | -0.0513
ACATTAGG | -0.103

(list continues)

Sequence | PBM E-score
CAAGGGCA | -0.0577
ACGCCATC | 0.0173
ATGAGACC | 0.105
ATCAAAGG | -0.0171
CCACCGAA | 0.0334
ATTCATGA | 0.0232
GTGTAATA | 0.0595
ATGGCCAA | -0.0541
GCGGGCCA | -0.166
CTCTTGTC | 0.0639
AGATTTAG | 0.119
TACATTAA | 0.144
TACTGGGA | -0.0926
ACCCGAGG | 0.0233
AGCGAGGG | -0.0677
CGAAAGAA | 0.105
AGTGCGAC | -0.093
TGTGTTAA | 0.0274
ATGGTTTA | 0.027
CCATTATA | 0.0657
CTCGTTGC | 0.212
GTACACAA | 0.0665
GTACAACA | 0.0729
CATGCCGG | 0.0656

Sequence | PBM E-score
ATACATGC | -0.0508
CGCGTTCA | 0.159
GCAGGAAC | -0.0336
CTATGACA | -0.012
CGTCTTGA | -0.0247
ACGATGGC | 0.0109
AACAGAAA | -0.0499
AGCATTAG | -0.0537
ATCGTTGA | 0.0447
CACCTTAG | -0.113
ATCGTCAA | -0.0792
ACCCACGT | 0.0168
CTCTCTGC | -0.0868
AAACGGTA | 0.137
ACATTTAT | 0.00924
GCTCTTTA | -0.00187
ACTGAGAA | -0.0694
GCAACCCC | -0.148
ACGGACTC | -0.13
CGGGATTA | 0.205
ATAAATGG | 0.0175
ATGACGAG | -0.0444
